The supplement of paper PMC10849652
This is one part of the list.

By UniProt entry, the sequences of proteins in these tests, tags left out. Where a name states a change or a piece, a line headed by the entry shows the natural chain unless it says otherwise.
UniProt P62879, whole entry, looked up: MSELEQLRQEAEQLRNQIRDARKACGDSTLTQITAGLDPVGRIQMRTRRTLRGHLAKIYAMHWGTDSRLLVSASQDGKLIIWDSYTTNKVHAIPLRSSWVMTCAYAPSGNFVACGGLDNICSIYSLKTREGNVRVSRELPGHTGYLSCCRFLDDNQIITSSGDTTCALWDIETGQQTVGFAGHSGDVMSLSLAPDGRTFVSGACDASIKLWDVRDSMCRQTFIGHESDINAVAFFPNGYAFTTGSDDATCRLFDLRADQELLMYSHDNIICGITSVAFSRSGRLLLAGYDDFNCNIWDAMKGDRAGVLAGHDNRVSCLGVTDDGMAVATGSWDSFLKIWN
UniProt Q14789: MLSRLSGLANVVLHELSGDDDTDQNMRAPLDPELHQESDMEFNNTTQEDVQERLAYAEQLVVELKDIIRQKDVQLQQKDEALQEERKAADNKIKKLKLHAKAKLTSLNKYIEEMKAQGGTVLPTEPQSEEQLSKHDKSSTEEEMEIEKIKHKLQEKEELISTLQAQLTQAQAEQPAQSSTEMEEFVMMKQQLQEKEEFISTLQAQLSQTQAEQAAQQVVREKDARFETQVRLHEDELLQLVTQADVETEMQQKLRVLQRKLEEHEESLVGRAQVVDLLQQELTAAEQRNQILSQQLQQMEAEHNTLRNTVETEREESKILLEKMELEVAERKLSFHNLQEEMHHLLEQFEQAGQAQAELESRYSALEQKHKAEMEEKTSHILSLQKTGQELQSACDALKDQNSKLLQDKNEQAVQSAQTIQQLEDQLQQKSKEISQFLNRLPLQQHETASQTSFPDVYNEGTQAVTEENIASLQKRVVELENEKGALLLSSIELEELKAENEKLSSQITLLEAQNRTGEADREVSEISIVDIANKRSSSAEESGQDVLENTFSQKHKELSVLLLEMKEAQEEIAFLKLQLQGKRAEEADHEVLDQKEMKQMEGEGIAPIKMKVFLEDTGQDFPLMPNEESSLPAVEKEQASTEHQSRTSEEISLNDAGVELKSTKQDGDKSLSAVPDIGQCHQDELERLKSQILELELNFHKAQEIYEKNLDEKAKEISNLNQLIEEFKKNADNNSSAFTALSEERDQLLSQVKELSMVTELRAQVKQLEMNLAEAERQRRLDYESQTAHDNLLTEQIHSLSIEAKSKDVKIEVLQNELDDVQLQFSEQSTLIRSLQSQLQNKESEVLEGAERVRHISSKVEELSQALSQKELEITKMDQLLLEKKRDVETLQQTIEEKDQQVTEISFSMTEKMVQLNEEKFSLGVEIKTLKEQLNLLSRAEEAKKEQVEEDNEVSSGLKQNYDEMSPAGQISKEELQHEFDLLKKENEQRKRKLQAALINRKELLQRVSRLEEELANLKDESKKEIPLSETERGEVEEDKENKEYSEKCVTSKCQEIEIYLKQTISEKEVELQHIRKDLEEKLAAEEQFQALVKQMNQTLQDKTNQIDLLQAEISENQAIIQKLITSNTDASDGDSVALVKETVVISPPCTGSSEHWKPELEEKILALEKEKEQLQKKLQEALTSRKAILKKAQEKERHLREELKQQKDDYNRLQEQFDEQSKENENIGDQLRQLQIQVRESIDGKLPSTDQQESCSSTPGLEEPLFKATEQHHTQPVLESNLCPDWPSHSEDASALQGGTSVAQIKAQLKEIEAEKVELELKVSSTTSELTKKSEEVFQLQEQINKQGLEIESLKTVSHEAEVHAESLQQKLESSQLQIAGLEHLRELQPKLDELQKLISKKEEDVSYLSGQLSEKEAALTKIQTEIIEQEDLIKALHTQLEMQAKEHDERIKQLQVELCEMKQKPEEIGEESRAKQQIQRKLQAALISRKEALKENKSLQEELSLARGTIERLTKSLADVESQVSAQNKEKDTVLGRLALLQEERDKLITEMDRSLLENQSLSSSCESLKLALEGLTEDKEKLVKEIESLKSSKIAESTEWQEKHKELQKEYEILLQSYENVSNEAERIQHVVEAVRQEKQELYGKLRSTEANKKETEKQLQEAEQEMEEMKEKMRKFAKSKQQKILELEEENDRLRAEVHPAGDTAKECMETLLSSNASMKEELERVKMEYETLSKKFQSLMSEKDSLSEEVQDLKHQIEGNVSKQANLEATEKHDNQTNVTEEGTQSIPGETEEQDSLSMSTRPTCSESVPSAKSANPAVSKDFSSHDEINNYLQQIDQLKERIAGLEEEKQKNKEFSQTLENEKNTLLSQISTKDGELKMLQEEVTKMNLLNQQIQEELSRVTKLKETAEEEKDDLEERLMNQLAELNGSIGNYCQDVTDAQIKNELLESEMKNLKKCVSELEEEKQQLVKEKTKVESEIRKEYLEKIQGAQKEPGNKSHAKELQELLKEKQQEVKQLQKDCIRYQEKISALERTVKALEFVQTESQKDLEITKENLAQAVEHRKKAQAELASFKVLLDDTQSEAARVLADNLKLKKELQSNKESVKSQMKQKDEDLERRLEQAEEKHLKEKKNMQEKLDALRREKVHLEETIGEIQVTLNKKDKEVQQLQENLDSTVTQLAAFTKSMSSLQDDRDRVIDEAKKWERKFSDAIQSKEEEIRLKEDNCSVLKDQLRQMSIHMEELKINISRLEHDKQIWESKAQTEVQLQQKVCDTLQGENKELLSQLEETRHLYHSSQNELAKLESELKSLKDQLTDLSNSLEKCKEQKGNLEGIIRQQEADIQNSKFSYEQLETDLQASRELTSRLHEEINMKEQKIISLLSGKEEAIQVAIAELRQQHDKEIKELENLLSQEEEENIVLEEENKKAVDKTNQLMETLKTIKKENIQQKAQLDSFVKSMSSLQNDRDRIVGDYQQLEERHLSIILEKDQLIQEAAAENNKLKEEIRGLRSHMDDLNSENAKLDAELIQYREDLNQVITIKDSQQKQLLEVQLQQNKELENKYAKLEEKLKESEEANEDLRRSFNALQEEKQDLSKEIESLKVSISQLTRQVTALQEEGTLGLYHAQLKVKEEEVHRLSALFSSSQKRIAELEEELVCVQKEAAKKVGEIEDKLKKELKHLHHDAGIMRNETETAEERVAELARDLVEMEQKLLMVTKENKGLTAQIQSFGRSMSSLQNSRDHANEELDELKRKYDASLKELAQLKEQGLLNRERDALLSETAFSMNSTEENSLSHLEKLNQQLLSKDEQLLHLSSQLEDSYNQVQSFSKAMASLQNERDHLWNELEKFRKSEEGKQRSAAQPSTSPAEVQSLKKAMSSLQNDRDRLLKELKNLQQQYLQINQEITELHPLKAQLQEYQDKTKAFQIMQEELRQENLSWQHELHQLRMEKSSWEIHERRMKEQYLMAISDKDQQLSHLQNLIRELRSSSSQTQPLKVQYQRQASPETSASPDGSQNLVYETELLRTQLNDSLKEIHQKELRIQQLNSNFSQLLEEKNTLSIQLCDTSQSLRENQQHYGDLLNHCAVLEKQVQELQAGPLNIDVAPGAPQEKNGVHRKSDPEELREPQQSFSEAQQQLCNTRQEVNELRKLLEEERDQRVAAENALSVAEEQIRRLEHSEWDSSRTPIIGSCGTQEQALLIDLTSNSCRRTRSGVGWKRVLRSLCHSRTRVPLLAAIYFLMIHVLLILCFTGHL
UniProt P06280: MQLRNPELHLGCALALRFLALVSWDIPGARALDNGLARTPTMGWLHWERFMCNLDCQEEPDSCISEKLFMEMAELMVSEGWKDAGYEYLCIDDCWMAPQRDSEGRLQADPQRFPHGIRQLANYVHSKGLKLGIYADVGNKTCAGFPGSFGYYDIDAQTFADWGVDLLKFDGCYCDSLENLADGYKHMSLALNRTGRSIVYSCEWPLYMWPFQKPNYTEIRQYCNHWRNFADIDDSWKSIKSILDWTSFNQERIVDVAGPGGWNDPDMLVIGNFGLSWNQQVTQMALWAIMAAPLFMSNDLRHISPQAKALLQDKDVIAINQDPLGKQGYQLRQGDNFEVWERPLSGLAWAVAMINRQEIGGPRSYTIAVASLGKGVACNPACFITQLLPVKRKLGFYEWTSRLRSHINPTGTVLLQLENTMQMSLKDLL
UniProt Q9Y692: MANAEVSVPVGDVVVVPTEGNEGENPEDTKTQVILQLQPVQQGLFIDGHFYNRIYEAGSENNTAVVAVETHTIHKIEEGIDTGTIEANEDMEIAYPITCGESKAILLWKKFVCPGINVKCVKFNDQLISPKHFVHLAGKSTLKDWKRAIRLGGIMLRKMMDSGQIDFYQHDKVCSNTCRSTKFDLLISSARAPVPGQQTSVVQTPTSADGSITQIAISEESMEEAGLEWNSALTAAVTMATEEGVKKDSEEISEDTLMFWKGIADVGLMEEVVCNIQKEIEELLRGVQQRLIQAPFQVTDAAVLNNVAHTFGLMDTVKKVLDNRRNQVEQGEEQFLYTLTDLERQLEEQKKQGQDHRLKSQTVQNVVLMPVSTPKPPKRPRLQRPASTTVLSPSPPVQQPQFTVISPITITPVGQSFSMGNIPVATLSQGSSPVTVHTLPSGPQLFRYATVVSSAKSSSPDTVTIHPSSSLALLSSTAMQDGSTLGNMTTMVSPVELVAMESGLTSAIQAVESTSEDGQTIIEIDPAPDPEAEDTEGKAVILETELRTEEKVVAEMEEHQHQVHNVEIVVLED
UniProt Q68CQ7: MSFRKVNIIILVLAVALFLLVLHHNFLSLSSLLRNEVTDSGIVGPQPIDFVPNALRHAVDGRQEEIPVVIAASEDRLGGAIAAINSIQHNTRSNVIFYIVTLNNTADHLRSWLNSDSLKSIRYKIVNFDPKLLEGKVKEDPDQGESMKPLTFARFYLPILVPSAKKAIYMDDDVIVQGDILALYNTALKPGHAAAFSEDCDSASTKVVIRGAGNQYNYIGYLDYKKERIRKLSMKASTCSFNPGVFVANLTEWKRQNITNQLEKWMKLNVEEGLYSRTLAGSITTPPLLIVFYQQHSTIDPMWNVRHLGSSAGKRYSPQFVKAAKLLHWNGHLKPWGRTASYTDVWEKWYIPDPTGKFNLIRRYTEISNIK
UniProt O94923: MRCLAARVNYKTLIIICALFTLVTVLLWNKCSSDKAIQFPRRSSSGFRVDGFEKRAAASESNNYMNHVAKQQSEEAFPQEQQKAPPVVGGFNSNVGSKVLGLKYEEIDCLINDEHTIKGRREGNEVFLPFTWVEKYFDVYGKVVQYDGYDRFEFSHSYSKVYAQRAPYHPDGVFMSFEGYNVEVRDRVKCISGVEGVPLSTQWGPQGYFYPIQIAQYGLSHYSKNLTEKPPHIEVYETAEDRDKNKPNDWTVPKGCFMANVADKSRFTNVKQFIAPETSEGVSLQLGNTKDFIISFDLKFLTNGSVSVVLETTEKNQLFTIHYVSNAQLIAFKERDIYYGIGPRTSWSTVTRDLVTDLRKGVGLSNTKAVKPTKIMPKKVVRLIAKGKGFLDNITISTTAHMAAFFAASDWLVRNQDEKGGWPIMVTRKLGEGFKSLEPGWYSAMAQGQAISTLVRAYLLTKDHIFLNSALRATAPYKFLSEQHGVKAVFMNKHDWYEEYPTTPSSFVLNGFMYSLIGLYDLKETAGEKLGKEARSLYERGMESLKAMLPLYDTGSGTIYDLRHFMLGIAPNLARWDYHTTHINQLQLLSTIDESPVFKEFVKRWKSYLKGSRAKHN
UniProt Q53GS7: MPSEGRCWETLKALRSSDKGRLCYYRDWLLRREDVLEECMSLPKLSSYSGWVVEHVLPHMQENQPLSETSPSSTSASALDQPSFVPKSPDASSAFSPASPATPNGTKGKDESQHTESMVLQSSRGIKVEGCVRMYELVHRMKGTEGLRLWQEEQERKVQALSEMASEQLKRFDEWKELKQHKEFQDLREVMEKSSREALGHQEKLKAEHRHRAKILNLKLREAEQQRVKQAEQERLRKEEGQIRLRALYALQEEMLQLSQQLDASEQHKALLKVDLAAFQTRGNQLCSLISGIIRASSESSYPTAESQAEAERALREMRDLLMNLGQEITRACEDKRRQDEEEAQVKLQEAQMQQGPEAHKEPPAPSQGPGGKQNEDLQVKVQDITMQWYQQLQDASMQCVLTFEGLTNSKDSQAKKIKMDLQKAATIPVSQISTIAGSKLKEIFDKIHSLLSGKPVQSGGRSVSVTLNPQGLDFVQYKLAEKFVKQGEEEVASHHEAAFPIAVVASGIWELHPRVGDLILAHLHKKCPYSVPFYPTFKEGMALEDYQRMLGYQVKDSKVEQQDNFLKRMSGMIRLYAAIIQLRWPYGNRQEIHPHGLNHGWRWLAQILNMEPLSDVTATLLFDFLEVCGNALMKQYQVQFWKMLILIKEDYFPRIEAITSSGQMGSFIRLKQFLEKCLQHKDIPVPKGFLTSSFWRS

Assays:
Assay in all cases: log2 fold change, soluble protein after heating vs DMSO (PISA); higher = thermal stabilisation; K562 cells, 10 uM, 30 min; active = over 0.2 and 3.5 SD of the protein, either way, in both replicates (recomputed)
erlotinib = compound: C#Cc1cccc(Nc2ncnc3cc(OCCOC)c(OCCOC)cc23)c1 [erlotinib]
Summary of the method: (§1)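 Soluble protein was quantified by TMTpro 16plex LC-MS/MS after channel sums were equalised. It was obtained as the supernatant after 21,000xg for 90 min from pooled aliquots of K562 cells (2×10^6 cells/mL, 10 μM compound, 30 min) heated for 3 min across 48°C-58°C and extracted in PBS with 0.5% NP-40 at 4°C. Thermal stability values are relative to control samples and come from duplicates. They are given as log2 fold changes.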

[1] = compound: C/C(=N\NC(=O)C1=CC(=CC=C1)S(=O)(=O)N2CCOCC2)/C3=C(C=CC(=C3)Cl)O
Summary of the method: as §1

[2] = compound: C1=CC(=C(C=C1Cl)C2=NC3=NC=CN=C3C(=N2)NC4=CC=NC=C4)F
Summary of the method: as §1

[3] = compound: C1=CC(=CC=C1C2=NC3=C(N2)C=C(C=C3)C(=O)N)OC4=CC=C(C=C4)Cl
Summary of the method: as §1

[4] = compound: C1=CC2=C(C=CC(=C2)/C=C\3/C(=O)NC(=NCC4=CC=CS4)S3)N=C1
Summary of the method: as §1

[5] = compound: C1=CC2=NC=CN=C2C=C1/C=C/3\C(=O)NC(=O)S3
Summary of the method: as §1

[6] = compound: C1=CC=C(C=C1)C2=NC(=C(N2)C3=CC=NC=C3)C4=CC(=C(C=C4)Cl)O
Summary of the method: as §1

[7] = compound: C1=CC=C2C(=C1)C3=NNC4=CC=CC(=C43)C2=O
Summary of the method: as §1

[8] = compound: C1CCN(C1)C(=O)NC2=CC=CC(=C2)NC3=NC=C(C(=N3)NCCC4=CN=CN4)Br
Summary of the method: as §1

[9] = compound: C1CN(CCC1(CC2=CC=C(C=C2)Cl)N)C3=NC=NC4=C3C=CN4
Summary of the method: as §1

IRAK-1-4 Inhibitor I = compound: C1COCCN1CCN2C3=CC=CC=C3N=C2NC(=O)C4=CC(=CC=C4)[N+](=O)[O-] [IRAK-1-4 Inhibitor I]
Summary of the method: as §1

ibrutinib = compound: C=CC(=O)N1CCC[C@@H](n2nc(-c3ccc(Oc4ccccc4)cc3)c3c(N)ncnc32)C1 [ibrutinib]
Summary of the method: as §1

[10] = compound: CC(=O)c1cnc2ccc(-c3cc(Cl)c(O)c(Cl)c3)nc2c1N[C@H]1CC[C@H](CN(C)C)CC1
Summary of the method: as §1

ralimetinib = compound: CC(C)(C)Cn1c(N)nc2ccc(-c3[nH]c(C(C)(C)C)nc3-c3ccc(F)cc3)nc21 [ralimetinib]
Summary of the method: as §1

[11] = compound: CC(C)(O)CC(=O)NCCn1ccc2ncnc(Nc3ccc(Oc4cccc(C(F)(F)F)c4)c(Cl)c3)c21
Summary of the method: as §1

[12] = compound: CC(C)C1=C2N=C(C=C(N2N=C1)NCC3=CC=CC=C3)NCCCCCCN
Summary of the method: as §1

[13] = compound: CC(C)C[C@@H](C=O)NC(=O)[C@H](CC(C)C)NC(=O)[C@H](CC(C)C)NC(=O)OCc1ccccc1
Summary of the method: as §1

pinometostat = compound: CC(C)N(C[C@H]1O[C@@H](n2cnc3c(N)ncnc32)[C@H](O)[C@@H]1O)[C@H]1C[C@@H](CCc2nc3cc(C(C)(C)C)ccc3[nH]2)C1 [pinometostat]
Summary of the method: as §1

[14] = compound: CC1=C(C2=C(C=C1)C(=O)C3=CC=CC=C3N2CCCN)C
Summary of the method: as §1

[15] = compound: CC1=C(C(CC(=O)N1)C2=CC=C(C=C2)C(F)(F)F)C(=O)NC3=C(C=C4C(=C3)C=NN4)F
Summary of the method: as §1

Measured: log2 fold change

GNB2 (UniProt P62879)
inactive: erlotinib 0.003 | [1] 0.079 | [2] -0.04 | [3] 0.051 | [4] -0.016 | [5] 0.007 | [6] -0.003 | [7] 0.008 | [8] -0.057 | [9] -0.002 | IRAK-1-4 Inhibitor I -0.021 | ibrutinib 0.003 | [10] -0.013 | ralimetinib 0.016 | [11] 0.013 | [12] 0.022 | [13] -0.025 | pinometostat 0.016 | [14] 0.076

GIGYF2 (UniProt Q6Y7W6)
active: [10] -0.316
inactive: erlotinib 0.062 | [1] 0.081 | [2] -0.022 | [3] -0.03 | [4] 0.05 | [5] 0.014 | [6] 0.009 | [7] 0.025 | [8] -0.039 | [9] -0.025 | IRAK-1-4 Inhibitor I -0.01 | ibrutinib -0.039 | ralimetinib -0.041 | [11] -0.124 | [12] -0.115 | [13] 0.01 | pinometostat 0.082 | [14] 0.021

GOLGB1 isoform 2 (UniProt Q14789)
inactive: erlotinib -0.152 | [1] -0.045 | [3] -0.055 | [4] 0.099 | [5] 0.071 | [6] -0.049 | [7] -0.059 | [8] -0.059 | [9] -0.08 | IRAK-1-4 Inhibitor I -0.023 | ibrutinib -0.032 | [10] 0.031 | ralimetinib 0.045 | [11] 0.05 | [12] 0.065 | [13] 0.082 | pinometostat 0.102 | [14] -0.051
active: [2] -0.312

GLS isoform 3 (UniProt O94925)
inactive: erlotinib 0.09 | [1] 0.156 | [2] -0.041 | [3] -0.094 | [4] 0.027 | [5] 0.004 | [6] 0 | [7] -0.082 | [8] -0.11 | [9] -0.12 | IRAK-1-4 Inhibitor I 0.011 | ibrutinib -0.15 | [10] -0.046 | ralimetinib -0.19 | [12] -0.034 | [13] -0.04 | pinometostat -0.088 | [14] -0.068
active: [11] -0.547

GLA (UniProt P06280)
inactive: erlotinib 0.016 | [1] 0.019 | [2] -0.018 | [3] -0.021 | [4] -0.018 | [5] -0.017 | [6] -0.034 | [7] -0.032 | [8] 0.026 | [9] 0.045 | IRAK-1-4 Inhibitor I 0.034 | ibrutinib 0.026 | [10] -0.031 | ralimetinib -0.05 | [11] -0.052 | [12] -0.199 | [13] 0.015 | pinometostat 0.02 | [14] -0.051

GLYR1 (UniProt Q49A26)
inactive: erlotinib -0.053 | [1] -0.211 | [2] -0.289 | [3] 0.05 | [4] -0.352 | [5] 0.1 | [6] -0.021 | [7] -0.034 | [8] 0.119 | [9] -0.03 | IRAK-1-4 Inhibitor I -0.067 | ibrutinib -0.074 | [10] 0.054 | ralimetinib 0.088 | [11] 0.093 | [12] -0.057 | [13] 0.09 | pinometostat 0.111 | [14] -0.016

GNS (UniProt P15586)
inactive: erlotinib -0.033 | [1] -0.003 | [2] 0.005 | [3] 0.004 | [4] 0.028 | [5] 0.026 | [6] 0.03 | [7] -0.04 | [8] 0.023 | [9] 0.061 | IRAK-1-4 Inhibitor I 0.023 | ibrutinib -0.011 | [10] 0.011 | ralimetinib -0.04 | [11] 0.065 | [12] -0.079 | [13] 0.025 | pinometostat -0.025 | [14] -0.01

GMEB1 (UniProt Q9Y692)
active: [14] -0.297
inactive: erlotinib 0.106 | [1] 0.071 | [2] 0.012 | [3] -0.005 | [4] -0.006 | [5] 0.009 | [6] -0.027 | [7] -0.089 | [8] 0.004 | [9] 0.036 | IRAK-1-4 Inhibitor I -0.033 | ibrutinib -0.031 | [10] -0.021 | ralimetinib 0.01 | [11] -0.039 | [12] -0.044 | [13] -0.031 | pinometostat 0.022

GOLGA8R (UniProt I6L899)
inactive: erlotinib 0.377 | [1] -0.394 | [3] -0.019 | [4] 0.078 | [5] -0.008 | [6] 0.058 | [7] -0.049 | [8] -0.097 | [9] 0.302 | IRAK-1-4 Inhibitor I 0.003 | ibrutinib 0.04 | [10] -0.106 | ralimetinib 0.247 | [12] 0.227 | [13] 0.177 | pinometostat 0.035 | [14] 0.201

GRAMD1A (UniProt Q96CP6)
inactive: [2] -0.04 | [5] 0 | ibrutinib -0.251 | [11] 0.011

Reprinted at random: two entries already listed, in no set order.
GNB2 (UniProt P62879)
inactive: erlotinib 0.003 | [1] 0.079 | [2] -0.04 | [3] 0.051 | [4] -0.016 | [5] 0.007 | [6] -0.003 | [7] 0.008 | [8] -0.057 | [9] -0.002 | IRAK-1-4 Inhibitor I -0.021 | ibrutinib 0.003 | [10] -0.013 | ralimetinib 0.016 | [11] 0.013 | [12] 0.022 | [13] -0.025 | pinometostat 0.016 | [14] 0.076

GOLGB1 isoform 2 (UniProt Q14789)
inactive: erlotinib -0.152 | [1] -0.045 | [3] -0.055 | [4] 0.099 | [5] 0.071 | [6] -0.049 | [7] -0.059 | [8] -0.059 | [9] -0.08 | IRAK-1-4 Inhibitor I -0.023 | ibrutinib -0.032 | [10] 0.031 | ralimetinib 0.045 | [11] 0.05 | [12] 0.065 | [13] 0.082 | pinometostat 0.102 | [14] -0.051
active: [2] -0.312

(further entries)

GLT8D1 (UniProt Q68CQ7)
inactive: [1] 0.012 | [4] 0.013 | [7] 0.231 | [10] -0.168 | [15] 0.006

GLCE (UniProt O94923)
inactive: erlotinib -0.028 | [3] 0.002 | [5] -0.146 | IRAK-1-4 Inhibitor I 0.196 | ibrutinib 0.021 | [12] -0.049 | pinometostat 0.038 | [15] -0.221

GLE1 (UniProt Q53GS7)
inactive: [1] -0.039 | [4] -0.194 | [7] -0.143 | [10] 0.003
